The structures appear in SMILES notation. This is one part of the list. This data set is noisy: repeats of one test often differ as much as different tests do.

Amino acid sequences for entries named in this document (tags omitted).
UniProt Q15717, whole entry: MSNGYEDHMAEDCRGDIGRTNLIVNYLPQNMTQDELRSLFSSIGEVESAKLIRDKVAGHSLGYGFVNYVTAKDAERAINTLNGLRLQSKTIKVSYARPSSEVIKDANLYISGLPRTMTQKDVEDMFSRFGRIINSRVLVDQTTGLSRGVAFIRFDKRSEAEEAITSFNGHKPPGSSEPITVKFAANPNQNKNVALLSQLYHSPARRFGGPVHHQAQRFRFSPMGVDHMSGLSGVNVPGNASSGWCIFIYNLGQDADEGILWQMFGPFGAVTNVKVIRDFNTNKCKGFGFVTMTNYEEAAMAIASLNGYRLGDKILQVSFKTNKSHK

The assay concerns the target HuR (ELAVL1) - TNFalpha ARE RNA complex (UniProt Q15717). The assay can be described thus: AlphaScreen HuR-RNA complex signal Z-score relative to positive (Bi-TNF, DMSO) controls (Z-score (SD units of positive control)); higher = more complex signal. As to conditions: screen stage: primary screen; compound concentration: 25 nM.
Turning to `CN[C@@H]1[C@@H](O)[C@@H](O[C@@H]2[C@@H](O)[C@H](O[C@H]3O[C@H]([C@@H](C)O)[C@@H](O)[C@H](O)[C@H]3N)[C@@H](N)C[C@H]2N)OC[C@]1(C)O`, the “AlphaScreen HuR-RNA complex signal Z-score” value is 1.85.
As for `CC(C)C[C@H]1C(=O)N2CCC[C@H]2[C@]2(O)O[C@](NC(=O)[C@@H]3C=C4c5cccc6[nH]c(Br)c(c56)C[C@H]4N(C)C3)(C(C)C)C(=O)N12`, the “AlphaScreen HuR-RNA complex signal Z-score” value amounted to 0.588.
In the case of `CN1[C@@H]2CC[C@H]1C[C@@H](OC(=O)C(CO)c1ccccc1)C2` (stereo partly drawn), the “AlphaScreen HuR-RNA complex signal Z-score” value stood at 0.315.
Take `CN1[C@@H]2CC[C@H]1C[C@@H](OC(c1ccccc1)c1ccccc1N)C2` (stereo partly drawn): the “AlphaScreen HuR-RNA complex signal Z-score” value was -0.446.
On to `CNC(Cc1c[nH]c2ccccc12)C(=O)O` (stereo not drawn), for which the “AlphaScreen HuR-RNA complex signal Z-score” value turned out to be 0.303.
`CNC(C)(C)Cc1ccccc1`: the “AlphaScreen HuR-RNA complex signal Z-score” value worked out at 1.5.
Consider `O=C(O)CCCOc1ccc(Cl)cc1Cl`, for which the “AlphaScreen HuR-RNA complex signal Z-score” value is 0.352.
Take `O=C(NC(=O)c1ccccc1Cl)Nc1ccc(OC(F)(F)F)cc1`: the “AlphaScreen HuR-RNA complex signal Z-score” value was determined as 3.61.
In the case of `COc1ccc(C(CN(C)C)C2(O)CCCCC2)cc1` (stereo not drawn) it was 1.21.
Consider `CNC(=O)Oc1ccc2c(c1)[C@]1(C)CCN(C)[C@@H]1N2C`, for which the “AlphaScreen HuR-RNA complex signal Z-score” value was determined as 0.61.
Consider `CN(C)C(=O)Oc1cccc([N+](C)(C)C)c1`, for which the “AlphaScreen HuR-RNA complex signal Z-score” value was -0.204.
As for `CN1[C@H]2C[C@H](OC(=O)[C@H](CO)c3ccccc3)C[C@@H]1[C@@H](O)C2`, the “AlphaScreen HuR-RNA complex signal Z-score” value was -4.91.
In the case of `CC(C)(N)Cc1ccccc1` it was 0.765; in that of `CN(CC[C@H](N)CC(=O)N[C@H]1C=C[C@H](n2ccc(N)nc2=O)O[C@@H]1C(=O)O)C(=N)N`, 2.21.
For the compound `COc1ccc(C(=O)O)cc1OC`, the “AlphaScreen HuR-RNA complex signal Z-score” value was 1.77.
For the compound `CC1(C)C2CC(=O)[C@]3(C)C(CC[C@@]4(C)[C@H](c5ccoc5)OC(=O)[C@H]5O[C@]543)[C@@]2(C)C(=O)C[C@H]1O` (stereo partly drawn), the “AlphaScreen HuR-RNA complex signal Z-score” value is 1.66.
In the case of `NCC(=O)c1ccccc1` it was 2.35; in that of `O=c1c(O)c(-c2ccc(O)c(O)c2)oc2c(O)c(O)cc(O)c12`, 0.946.
Consider `CN1CCc2cc3c(cc2C1O)OCO3` (stereo not drawn), for which the “AlphaScreen HuR-RNA complex signal Z-score” value came out at 0.412.
In the case of `COc1cccc2c1cc([N+](=O)[O-])c1c(C(=O)O)cc3c(c12)OCO3` it was -0.0874.
`COc1ccc(/C=C/c2cc(O)cc(O)c2)cc1`: the “AlphaScreen HuR-RNA complex signal Z-score” value stood at 2.08.
In the case of `O=c1[nH]c2ccccc2n1C1CCN(CCCC(c2ccc(F)cc2)c2ccc(F)cc2)CC1` it was 0.544; in that of `CC(=O)[O][Hg][c]1ccccc1`, -1.27; in that of `CC(=O)Nc1cc([As](=O)(O)O)ccc1O`, -0.623.
`Cc1cc2c(C(C)C)c(O)c(O)c(C=O)c2c(O)c1-c1c(C)cc2c(C(C)C)c(O)c(O)c(C=O)c2c1O`: the “AlphaScreen HuR-RNA complex signal Z-score” value came to 2.42.
In the case of `C/C=C(\C)C(=O)O[C@H]1C[C@@H](OC(C)=O)[C@@]2(C(=O)OC)CO[C@H]3[C@@H](O)[C@@](C)([C@]45O[C@@]4(C)[C@H]4C[C@@H]5O[C@@H]5OC=C[C@@]54O)[C@H]4[C@]1(CO[C@]4(O)C(=O)OC)[C@@H]32`, the “AlphaScreen HuR-RNA complex signal Z-score” value is 0.635.
In the case of `COc1cc2c(cc1OC)[C@@H]1C(=O)c3ccc(OC)c(CC=C(C)C)c3O[C@@H]1CO2` it was 1.81; in that of `C#CCN(C)[C@H](C)Cc1ccccc1`, 0.995.
As to `C[C@@H]1O[C@@H](O[C@@H]2C=C3CC[C@@H]4[C@H](CC[C@]5(C)[C@@H](c6ccc(=O)oc6)CC[C@]45O)[C@@]3(C)CC2)[C@H](O)[C@H](O)[C@H]1O`, the “AlphaScreen HuR-RNA complex signal Z-score” value is 1.64.
In the case of `CN(C)C(=O)Oc1ccc[n+](C)c1` it was 1.36; in that of `c1cc2c(cc1[C@H]1OC[C@H]3[C@@H]1CO[C@H]3c1ccc3c(c1)OCO3)OCO2`, -0.381; in that of `c1ccc2c(c1)[nH]c1cnccc12`, 1.55.
`O=[N+]([O-])c1ccc(O)c([N+](=O)[O-])c1`: the “AlphaScreen HuR-RNA complex signal Z-score” value worked out at 1.94.
For the compound `COC1=C[C@]23CCCN2CCc2cc4c(cc2[C@@H]3[C@@H]1O)OCO4`, the “AlphaScreen HuR-RNA complex signal Z-score” value is 1.56.
For `NCCCNCCSP(=O)(O)O`, the “AlphaScreen HuR-RNA complex signal Z-score” value was found to be 3.14.
`CC(C)c1ccc2c(c1O)CC[C@H]1C3=C(CC[C@]21C)C(=O)OC3`: the “AlphaScreen HuR-RNA complex signal Z-score” value came to 1.55.
As for `COP(=S)(OC)Oc1cc(Cl)c(Cl)cc1Cl`, the “AlphaScreen HuR-RNA complex signal Z-score” value stood at 3.19.
Turning to `COc1cc2occc2c2oc(=O)ccc12`, the “AlphaScreen HuR-RNA complex signal Z-score” value worked out at 0.386.
`CCCCCCCCC(=O)NCc1ccc(O)c(OC)c1`: the “AlphaScreen HuR-RNA complex signal Z-score” value was -0.471.
Consider `COc1cc2c(cc1O)C[C@H]1c3c(cc(O)c(OC)c3-2)CCN1C`, for which the “AlphaScreen HuR-RNA complex signal Z-score” value came out at 2.83.
In the case of `CC1(C)C(=O)C=C[C@@]2(C)C1=C(O)C(=O)[C@]1(C)[C@@H]2CC[C@@]2(C)[C@H](c3ccoc3)C[C@H]3O[C@]321` it was 0.09.
In the case of `Cc1c(O)c(O)cc2c1CC=C1[C@@]2(C)CC[C@@]2(C)[C@@H]3C[C@](C)(C(=O)O)CC[C@]3(C)CC[C@]12C`, the “AlphaScreen HuR-RNA complex signal Z-score” value came out at 2.5.
Consider `O=C1CCO1`, for which the “AlphaScreen HuR-RNA complex signal Z-score” value is 3.76.
For `COc1ccc(OC)c(C(O)C(C)N)c1` (stereo not drawn), the “AlphaScreen HuR-RNA complex signal Z-score” value was 1.95.
In the case of `CCC(=O)O[C@H]1CC[C@H]2[C@@H]3CCC4=CC(=O)CC[C@]4(C)[C@H]3CC[C@]12C` it was 0.315.
For the compound `O=C1C(Cl)=C(Cl)C(=O)C(Cl)=C1Cl`, the “AlphaScreen HuR-RNA complex signal Z-score” value stood at 1.61.
For the compound `C[C@@H]1CC[C@]2(NC1)O[C@H]1C[C@H]3[C@@H]4CC=C5C[C@@H](O)CC[C@]5(C)[C@H]4CC[C@]3(C)[C@H]1[C@@H]2C`, the “AlphaScreen HuR-RNA complex signal Z-score” value was 2.68.
In the case of `Oc1ccc(Cl)cc1Cc1cc(Cl)ccc1O` it was 0.981.
For `Cl[C@H]1[C@H](Cl)[C@@H](Cl)[C@@H](Cl)[C@H](Cl)[C@H]1Cl`, the “AlphaScreen HuR-RNA complex signal Z-score” value stood at 0.719.
As for `CNC(=O)Oc1cccc2c1OC(C)(C)C2`, the “AlphaScreen HuR-RNA complex signal Z-score” value was 0.687.
In the case of `COc1cc([C@@H]2c3cc4c(cc3[C@@H](O)[C@H]3COC(=O)[C@H]23)OCO4)cc(OC)c1O` it was 1.98; in that of `CCCC(C)(COC(N)=O)COC(=O)NC(C)C` (stereo not drawn), 0.312.
`COC(C)(C)CCC[C@H](C)C/C=C/C(C)=C/C(=O)OC(C)C`: the “AlphaScreen HuR-RNA complex signal Z-score” value was 1.26.
Take `C[C@@]12C(=O)OC(=O)[C@]1(C)[C@H]1CC[C@@H]2O1`: the “AlphaScreen HuR-RNA complex signal Z-score” value came to 2.62.
In the case of `COc1cc(OC)c(OC)cc1C=O`, the “AlphaScreen HuR-RNA complex signal Z-score” value came out at 2.04.
As to `C[N+]1(C)CCCC(OC(=O)C(O)(c2ccccc2)c2ccccc2)C1` (stereo not drawn), the “AlphaScreen HuR-RNA complex signal Z-score” value was found to be 4.97.
In the case of `CN1C2CCC1CC(O)C2` (stereo not drawn), the “AlphaScreen HuR-RNA complex signal Z-score” value amounted to 2.93.
As to `CC(=O)O[C@@H]1C[C@H]2C(C)(C)C(=O)C=C[C@]2(C)[C@H]2CC[C@]3(C)C(=CC(=O)O[C@H]3c3ccoc3)[C@@]21C`, the “AlphaScreen HuR-RNA complex signal Z-score” value stood at 2.09.
With `COC(=O)NC(=S)Nc1ccccc1NC(=S)NC(=O)OC`, the “AlphaScreen HuR-RNA complex signal Z-score” value stood at 2.08.
In the case of `CCOP(=S)(OCC)Oc1ccc2c(C)c(Cl)c(=O)oc2c1` it was 0.559; in that of `CC(C)=CCC[C@]1(C)C=Cc2c(O)c3c(c(CC=C(C)C)c2O1)O[C@]12C(=C[C@@H]4C[C@H]1C(C)(C)O[C@@]2(C/C=C(/C)C(N)=O)C4=O)C3=O`, -0.531.
`CC1CC(Cl)CCC1C(=O)OC(C)(C)C` (stereo not drawn): the “AlphaScreen HuR-RNA complex signal Z-score” value was 1.61.
Consider `C=CCC1(C(C)CCC)C(=O)NC(=S)NC1=O` (stereo not drawn), for which the “AlphaScreen HuR-RNA complex signal Z-score” value is 2.35.

Source of the values: the supplement of paper PMC3741180, “A Novel High Throughput Biochemical Assay to Evaluate the HuR Protein-RNA Complex Formation” (PLoS ONE, 2013).
